PubChem BioAssay AID686937, Drosophila RNAi Screening Center – 2013
The screen tested about 23,000 reagents; below is a random part of those that have a named target and a result. 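Reduced-secretion tags in replicate 1 do not always agree with the z-scores; no criterion for assigning the tags was given.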 Not all columns of the deposit are shown. The record does not give: the amount of reagent.

Screen: 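Knock-downs that reduce output of a secreted reporter enzyme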 (primary screen)
System: Drosophila S2 cells expressing secreted horseradish peroxidase
Knock-down reagent: long dsRNA against Drosophila genes
Time to read-out: about 5.5 days (5 days dsRNA, then 12 h reporter induction)
Conditions: reporter expression induced after 5 days of dsRNA, read 12 h later; inducer not stated
Read-out: 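Chemiluminescent measurement of peroxidase in the medium 12 h after reporter induction, following 5 days of dsRNA, given as a z-score per plate; higher means more secretion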
Scale: z-score: higher = more reporter secreted into medium

The opening 2 entries, to show the layout:
lncRNA:CR43334 (GeneID 12798545) [DRSC07894] → z-score, replicate 1: -0.07
lncRNA:CR43334 (GeneID 12798545) [DRSC07895] → z-score, replicate 1: 0.11

The listing, repeating the preview:
lncRNA:CR43334 (GeneID 12798545) [DRSC07894] → z-score, replicate 1: -0.07
lncRNA:CR43334 (GeneID 12798545) [DRSC07895] → z-score, replicate 1: 0.11
Hrb27C (GeneID 33968) [DRSC03347] → z-score, replicate 1: 0.33
Apt1 (GeneID 59176) [DRSC10348] → z-score, replicate 1: 0.13
CG14423 (GeneID 31287) [DRSC17920] → z-score, replicate 1: -0.42
Rbfox1 (GeneID 39198) [DRSC09034] → z-score, replicate 1: 0.24
Rbfox1 (GeneID 39198) [DRSC10157] → z-score, replicate 1: 0.11; phenotype, replicate 1: reduced secretion
Rbfox1 (GeneID 39198) [DRSC10320] → z-score, replicate 1: -0.72
Rbfox1 (GeneID 39198) [DRSC21378] → z-score, replicate 1: 0.52
CheA29a (GeneID 246659) [DRSC21486] → z-score, replicate 1: 0.04
pico (GeneID 33003) [DRSC19430] → z-score, replicate 1: -0.22
Jig (GeneID 41762) [DRSC14974] → z-score, replicate 1: 0.15
CG33792 (GeneID 3772111) [DRSC05355] → z-score, replicate 1: 0.08
ImpE1 (GeneID 45879) [DRSC11195] → z-score, replicate 1: 0.24
ImpE1 (GeneID 45879) [DRSC11196] → z-score, replicate 1: 0.22
Tpc1 (GeneID 41316) [DRSC15614] → z-score, replicate 1: -0.09
Tpc1 (GeneID 41316) [DRSC16074] → z-score, replicate 1: 0.21
Xxylt (GeneID 37833) [DRSC04107] → z-score, replicate 1: 0.14
GstE6 (GeneID 37111) [DRSC06676] → z-score, replicate 1: 0.3
TfIIA-S-2 (GeneID 31048) [DRSC17791] → z-score, replicate 1: 0.3
obst-J (GeneID 40202) [DRSC10821] → z-score, replicate 1: 0.31
Uhg3 (GeneID 3772557) [DRSC22963] → z-score, replicate 1: -0.36
CG4968 (GeneID 34384) [DRSC02794] → z-score, replicate 1: 0.45
CG30484 (GeneID 36534) [DRSC05457] → z-score, replicate 1: 0.21
CG2698 (GeneID 40945) [DRSC15447] → z-score, replicate 1: 0.25
CG31344 (GeneID 41835) [DRSC16069] → z-score, replicate 1: 0.22
rtp (GeneID 40627) [DRSC12132] → z-score, replicate 1: 0.73
